# Reference: paper PMC10720265
# Amino acid sequences for entries named in this document (tags omitted).
# UniProt Q6NZY4: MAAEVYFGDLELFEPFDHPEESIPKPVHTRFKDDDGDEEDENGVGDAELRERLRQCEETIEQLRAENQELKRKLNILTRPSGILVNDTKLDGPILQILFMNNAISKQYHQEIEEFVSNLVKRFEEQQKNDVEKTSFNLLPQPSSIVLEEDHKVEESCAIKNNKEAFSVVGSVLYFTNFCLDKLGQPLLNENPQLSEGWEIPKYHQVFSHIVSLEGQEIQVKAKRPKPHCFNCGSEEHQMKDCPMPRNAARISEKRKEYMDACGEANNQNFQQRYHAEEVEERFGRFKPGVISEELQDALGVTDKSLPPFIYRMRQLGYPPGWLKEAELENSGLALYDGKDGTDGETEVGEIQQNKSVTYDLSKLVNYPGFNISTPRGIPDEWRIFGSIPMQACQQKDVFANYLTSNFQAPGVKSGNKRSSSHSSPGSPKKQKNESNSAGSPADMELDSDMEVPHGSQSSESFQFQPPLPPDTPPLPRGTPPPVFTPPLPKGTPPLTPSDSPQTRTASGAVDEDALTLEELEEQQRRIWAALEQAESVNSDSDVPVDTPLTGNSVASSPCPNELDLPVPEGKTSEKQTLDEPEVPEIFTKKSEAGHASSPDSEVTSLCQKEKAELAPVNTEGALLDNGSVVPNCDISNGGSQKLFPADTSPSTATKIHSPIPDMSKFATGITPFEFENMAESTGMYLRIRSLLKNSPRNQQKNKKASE
# T1: His-MBP-Z1^11-35(WT) (human) (UniProt O60293)
# T1 sequence: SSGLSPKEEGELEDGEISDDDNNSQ
# T2: ZC3H18^190-211(WT) (human) (UniProt Q86VM9)
# T2 sequence: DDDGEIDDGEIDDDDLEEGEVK
# Assays:
# [1] = target: T1, His-MBP-Z1^11-35(WT) (human); assay: pull-down; SLiM peptide fusion held on amylose resin; 10 or 30 μM of each protein; 20 mM HEPES/NaOH pH 7.5, 100 mM NaCl, 2 mM DTT, 0.01% Tween 20; 30 min on ice, resin 1 h at 4°C; Coomassie-stained SDS-PAGE; both purified
# [2] = target: T2, ZC3H18^190-211(WT) (human); assay: as above
# [3] = target: MYC-tagged ZC3H18^MUT, point mutations in the acidic SLiM (human) (UniProt Q86VM9); assay: co-IP; MYC IP of MYC-tagged ZC3H18^WT or ZC3H18^MUT from HeLa lysates, untagged cells as control; western blot for ARS2, NCBP2, ZCCHC8, MTR4
# [4] = target: MYC-ARS2 (human); assay: co-IP; MYC IP of stably expressed MYC-ARS2 from HeLa lysates; cells treated with siLUC or siZC3H18, or with DOX-induced overexpression of Z1^1-209(WT); western blot
molecule,measurement,setting,value
His-ARS2^147-871 (human) (domain or fragment),binding,[1],binds
same,binding,[2],binds
"ZCCHC8, endogenous in HeLa cells (from UniProt Q6NZY4 1-707)",binding,[3],binds
"Z1^1-209(WT), MYC-tagged N-terminal fragment of human ZFC3H1 (domain or fragment, UniProt O60293 1-209) MATADTPAPASSGLSPKEEGELEDGEISDDDNNSQIRSRSSSSSSGGGLLPYPRRRPPHSARGGGSGGGGGSSSSSSSSQQQLRNFSRSRHASERGHLRGPSSYRPKEPFRSHPPSVRMPSSSLSESSPRPSFWERSHLALDRFRFRGRPYRGGSRWSRGRGVGERGGKPGCRPPLGGGAGSGFSSSQSWREPSPPRKSSKSFGRSPSR",binding,[4],binds
"ZC3H18, endogenous in HeLa cells (protein, UniProt Q86VM9 1-953) MDVAESPERDPHSPEDEEQPQGLSDDDILRDSGSDQDLDGAGVRASDLEDEESAARGPSQEEEDNHSDEEDRASEPKSQDQDSEVNELSRGPTSSPCEEEGDEGEEDRTSDLRDEASSVTRELDEHELDYDEEVPEEPAPAVQEDEAEKAGAEDDEEKGEGTPREEGKAGVQSVGEKESLEAAKEKKKEDDDGEIDDGEIDDDDLEEGEVKDPSDRKVRPRPTCRFFMKGNCTWGMNCRFIHPGVNDKGNYSLITKADPFPPNGAPPLGPHPLMPANPWGGPVVDEILPPPPPEPPTESAWERGLRHAKEVLKKATIRKEQEPDFEEKRFTVTIGEDEREFDKENEVFRDWNSRIPRDVRDTVLEPYADPYYDYEIERFWRGGQYENFRVQYTETEPYHNYRERERERERENRQRERERERERDRERERRQRERERERERERDKERQRRKEEWERERAKRDEKDRQHRDRDREKEREKEKGKPKPRSPQPPSRQAEPPKKEAATTGPQVKRADEWKDPWRRSKSPKKKLGVSVSPSRARRRRKTSASSASASNSSRSSSRSSSYSGSGSSRSRSRSSSYSSYSSRSSRHSSFSGSRSRSRSFSSSPSPSPTPSPHRPSIRTKGEPAPPPGKAGEKSVKKPAPPPAPPQATKTTAPVPEPTKPGDPREARRKERPARTPPRRRTLSGSGSGSGSSYSGSSSRSRSLSVSSVSSVSSATSSSSSAHSVDSEDMYADLASPVSSASSRSPAPAQTRKEKGKSKKEDGVKEEKRKRDSSTQPPKSAKPPAGGKSSQQPSTPQQAPPGQPQQGTFVAHKEIKLTLLNKAADKGSRKRYEPSDKDRQSPPPAKRPNTSPDRGSRDRKSGGRLGSPKPERQRGQNSKAPAAPADRKRQLSPQSKSSSKVTSVPGKASDPGAASTKSGKASTLSRREELLKQLKAVEDAIARKRAKIPGKA",binding,[4],binds

# These are yes or no findings as the source states them, for the method shown. Binding calls can cover weak binding; strength is not graded here. For some assays here: Sequences can lack the tags named with a protein. For some assays here: In cells and extracts the contact can be indirect.
